Source: patent US20120005782A1
These are yes or no findings as the source states them, for the method shown. Some binding calls cover weakened binding; strength is not graded here.

By UniProt entry, the sequences of proteins in these tests, tags left out. Residues count along the entry.
UniProt P00772, residues 27-266: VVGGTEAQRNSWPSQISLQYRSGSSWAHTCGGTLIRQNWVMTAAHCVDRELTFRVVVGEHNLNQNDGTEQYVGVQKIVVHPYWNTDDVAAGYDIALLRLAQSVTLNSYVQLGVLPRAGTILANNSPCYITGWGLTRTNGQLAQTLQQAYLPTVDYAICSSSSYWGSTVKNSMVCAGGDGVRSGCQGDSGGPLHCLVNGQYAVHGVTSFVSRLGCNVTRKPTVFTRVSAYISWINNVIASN
UniProt P01009, residues 25-418: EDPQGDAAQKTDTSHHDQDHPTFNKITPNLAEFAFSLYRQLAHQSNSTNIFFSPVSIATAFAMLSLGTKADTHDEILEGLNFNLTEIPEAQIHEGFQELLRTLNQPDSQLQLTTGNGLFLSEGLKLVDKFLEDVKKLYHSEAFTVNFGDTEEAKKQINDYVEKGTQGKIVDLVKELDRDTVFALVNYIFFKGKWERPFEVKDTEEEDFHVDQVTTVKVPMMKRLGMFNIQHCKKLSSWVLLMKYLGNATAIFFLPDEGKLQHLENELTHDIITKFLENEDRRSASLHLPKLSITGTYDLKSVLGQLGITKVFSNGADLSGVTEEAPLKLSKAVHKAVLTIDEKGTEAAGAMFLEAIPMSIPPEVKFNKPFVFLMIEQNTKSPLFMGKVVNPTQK

Assays:
[1] = target: porcine pancreatic elastase (PPE) (porcine) (UniProt P00772); test: band shift assay: leaf extract incubated with PPE, SDS-PAGE, anti-AAT immunoblot (FIG. 4B)
[2] = target: porcine pancreatic elastase (PPE) (porcine) (UniProt P00772); test: band shift assay: leaf extract incubated with PPE, SDS-PAGE, anti-AAT immunoblot (FIG. 5B)
[3] = target: porcine pancreatic elastase (PPE) (porcine) (UniProt P00772); test: functional AAT ELISA: AAT-PPE complex captured by anti-AAT and detected by anti-elastase-HRP; bioreactor culture supernatant

Measured: binding

recombinant α1-antitrypsin (rAAT) produced in Nicotiana benthamiana from the SPAAT gene (from UniProt P01009 25-418)
binds: all assays above
